Source: publication PMC4477675
These are yes or no findings as the source states them, for the method shown. Binding seen in cells or lysates may run through a third protein.

Chains of the proteins cited; added tags and fusions are not shown.
UniProt Q13216: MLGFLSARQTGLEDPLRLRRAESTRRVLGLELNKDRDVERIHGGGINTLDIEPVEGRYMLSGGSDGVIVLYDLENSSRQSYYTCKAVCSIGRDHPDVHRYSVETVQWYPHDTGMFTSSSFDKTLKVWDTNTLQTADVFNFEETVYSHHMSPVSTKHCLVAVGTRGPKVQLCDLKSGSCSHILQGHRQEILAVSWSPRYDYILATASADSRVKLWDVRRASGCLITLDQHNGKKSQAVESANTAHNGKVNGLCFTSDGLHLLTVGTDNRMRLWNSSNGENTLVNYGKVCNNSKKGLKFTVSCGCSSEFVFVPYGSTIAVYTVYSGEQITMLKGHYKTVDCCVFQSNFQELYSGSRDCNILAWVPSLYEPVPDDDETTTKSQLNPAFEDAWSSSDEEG
UniProt Q03468: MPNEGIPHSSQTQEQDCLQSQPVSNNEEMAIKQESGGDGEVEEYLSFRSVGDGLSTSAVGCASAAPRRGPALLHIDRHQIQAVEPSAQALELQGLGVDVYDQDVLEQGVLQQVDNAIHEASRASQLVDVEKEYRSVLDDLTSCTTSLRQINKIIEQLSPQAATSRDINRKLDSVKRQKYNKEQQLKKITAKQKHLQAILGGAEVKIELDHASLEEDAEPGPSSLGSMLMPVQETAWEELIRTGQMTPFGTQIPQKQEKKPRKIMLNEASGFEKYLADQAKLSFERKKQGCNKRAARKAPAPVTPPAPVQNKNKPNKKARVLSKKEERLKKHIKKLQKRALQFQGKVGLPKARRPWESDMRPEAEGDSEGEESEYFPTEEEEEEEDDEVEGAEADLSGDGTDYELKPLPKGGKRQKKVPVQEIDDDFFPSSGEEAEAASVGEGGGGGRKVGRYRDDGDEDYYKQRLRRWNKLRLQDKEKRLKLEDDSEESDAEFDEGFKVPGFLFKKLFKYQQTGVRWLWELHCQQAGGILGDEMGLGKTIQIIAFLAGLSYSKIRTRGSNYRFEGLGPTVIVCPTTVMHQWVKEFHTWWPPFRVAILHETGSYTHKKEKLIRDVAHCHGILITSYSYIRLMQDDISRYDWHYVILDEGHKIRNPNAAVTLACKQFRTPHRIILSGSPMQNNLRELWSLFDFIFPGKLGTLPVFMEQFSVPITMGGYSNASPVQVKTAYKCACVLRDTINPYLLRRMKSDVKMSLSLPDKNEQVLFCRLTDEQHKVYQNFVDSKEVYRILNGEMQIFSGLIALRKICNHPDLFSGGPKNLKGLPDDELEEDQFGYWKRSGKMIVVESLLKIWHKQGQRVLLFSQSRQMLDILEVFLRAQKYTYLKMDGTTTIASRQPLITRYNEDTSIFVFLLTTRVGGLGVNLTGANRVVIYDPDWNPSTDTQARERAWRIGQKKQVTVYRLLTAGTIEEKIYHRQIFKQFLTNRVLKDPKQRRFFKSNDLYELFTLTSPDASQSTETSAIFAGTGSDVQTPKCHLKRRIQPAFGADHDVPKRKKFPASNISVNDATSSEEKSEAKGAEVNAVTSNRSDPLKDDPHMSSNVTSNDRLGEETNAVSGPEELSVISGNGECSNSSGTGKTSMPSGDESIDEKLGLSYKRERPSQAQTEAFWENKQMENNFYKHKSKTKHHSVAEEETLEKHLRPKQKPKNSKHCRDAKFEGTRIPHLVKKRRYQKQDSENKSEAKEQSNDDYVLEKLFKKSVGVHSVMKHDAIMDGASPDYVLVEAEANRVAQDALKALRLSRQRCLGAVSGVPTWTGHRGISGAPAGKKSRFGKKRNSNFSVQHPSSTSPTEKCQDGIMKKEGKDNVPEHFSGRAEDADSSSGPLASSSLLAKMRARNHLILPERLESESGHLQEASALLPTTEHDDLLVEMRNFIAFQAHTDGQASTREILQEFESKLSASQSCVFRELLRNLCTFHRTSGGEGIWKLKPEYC

Target: T1, XPD (as used in the co-IP assays of Supplementary Figure S4) (human) (UniProt P18074)
T1 sequence: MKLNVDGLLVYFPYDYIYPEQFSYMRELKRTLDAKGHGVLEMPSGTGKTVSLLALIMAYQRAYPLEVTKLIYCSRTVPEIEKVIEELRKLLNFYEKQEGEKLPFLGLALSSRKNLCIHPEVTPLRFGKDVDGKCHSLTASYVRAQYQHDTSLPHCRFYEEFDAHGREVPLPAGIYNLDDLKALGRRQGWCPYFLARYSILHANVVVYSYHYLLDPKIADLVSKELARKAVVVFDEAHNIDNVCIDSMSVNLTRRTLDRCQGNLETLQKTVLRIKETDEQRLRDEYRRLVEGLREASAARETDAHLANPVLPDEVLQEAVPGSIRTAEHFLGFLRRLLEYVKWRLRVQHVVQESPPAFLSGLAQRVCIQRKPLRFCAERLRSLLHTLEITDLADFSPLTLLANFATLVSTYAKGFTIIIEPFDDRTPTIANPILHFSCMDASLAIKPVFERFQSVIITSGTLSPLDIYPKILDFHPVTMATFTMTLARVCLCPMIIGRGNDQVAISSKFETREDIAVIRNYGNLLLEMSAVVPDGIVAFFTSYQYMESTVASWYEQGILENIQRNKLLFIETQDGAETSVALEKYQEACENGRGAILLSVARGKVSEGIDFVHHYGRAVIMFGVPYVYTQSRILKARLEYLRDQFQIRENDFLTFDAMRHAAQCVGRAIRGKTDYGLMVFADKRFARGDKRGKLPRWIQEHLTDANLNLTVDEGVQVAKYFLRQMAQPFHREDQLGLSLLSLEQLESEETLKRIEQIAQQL
Assay: co-IP; co-IP assays of XPD with CSA or CSB (Supplementary Figure S4); set-up not told

| binding | Substance |
| --- | --- |
| no binding | CSA (from UniProt Q13216 1-396) |
| no binding | CSB (from UniProt Q03468 1-1493) (other; other documents disagree on this pair) |
